Assay results published in the supplement of paper PMC10849652.
Some of the results follow.

The chains behind the UniProt entries cited, without tags or fusion partners. Where a name states a change or a piece, a line headed by the entry shows the natural chain unless it says otherwise.
UniProt Q12962, whole entry, looked up: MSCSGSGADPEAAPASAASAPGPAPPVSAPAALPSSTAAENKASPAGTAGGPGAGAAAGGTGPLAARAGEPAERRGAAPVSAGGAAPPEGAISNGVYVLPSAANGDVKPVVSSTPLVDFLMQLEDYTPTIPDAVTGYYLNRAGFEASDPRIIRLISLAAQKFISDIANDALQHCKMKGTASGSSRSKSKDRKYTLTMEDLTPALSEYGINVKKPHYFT
UniProt P27105: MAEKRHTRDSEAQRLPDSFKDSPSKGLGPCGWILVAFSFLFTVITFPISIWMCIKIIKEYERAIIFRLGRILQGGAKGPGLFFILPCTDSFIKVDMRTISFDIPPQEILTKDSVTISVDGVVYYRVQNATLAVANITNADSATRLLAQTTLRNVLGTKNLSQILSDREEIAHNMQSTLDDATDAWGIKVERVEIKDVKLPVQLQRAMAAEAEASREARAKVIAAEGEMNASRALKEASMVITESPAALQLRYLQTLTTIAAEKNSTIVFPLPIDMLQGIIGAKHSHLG
UniProt Q15526: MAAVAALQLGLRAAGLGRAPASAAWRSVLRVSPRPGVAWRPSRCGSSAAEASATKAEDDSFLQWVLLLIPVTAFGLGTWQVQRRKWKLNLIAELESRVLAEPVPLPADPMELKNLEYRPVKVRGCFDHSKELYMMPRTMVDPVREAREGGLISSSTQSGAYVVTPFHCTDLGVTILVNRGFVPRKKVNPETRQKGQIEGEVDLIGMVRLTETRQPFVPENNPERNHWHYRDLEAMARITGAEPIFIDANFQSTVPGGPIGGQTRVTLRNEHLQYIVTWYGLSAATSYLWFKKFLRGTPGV
UniProt Q8N1F8: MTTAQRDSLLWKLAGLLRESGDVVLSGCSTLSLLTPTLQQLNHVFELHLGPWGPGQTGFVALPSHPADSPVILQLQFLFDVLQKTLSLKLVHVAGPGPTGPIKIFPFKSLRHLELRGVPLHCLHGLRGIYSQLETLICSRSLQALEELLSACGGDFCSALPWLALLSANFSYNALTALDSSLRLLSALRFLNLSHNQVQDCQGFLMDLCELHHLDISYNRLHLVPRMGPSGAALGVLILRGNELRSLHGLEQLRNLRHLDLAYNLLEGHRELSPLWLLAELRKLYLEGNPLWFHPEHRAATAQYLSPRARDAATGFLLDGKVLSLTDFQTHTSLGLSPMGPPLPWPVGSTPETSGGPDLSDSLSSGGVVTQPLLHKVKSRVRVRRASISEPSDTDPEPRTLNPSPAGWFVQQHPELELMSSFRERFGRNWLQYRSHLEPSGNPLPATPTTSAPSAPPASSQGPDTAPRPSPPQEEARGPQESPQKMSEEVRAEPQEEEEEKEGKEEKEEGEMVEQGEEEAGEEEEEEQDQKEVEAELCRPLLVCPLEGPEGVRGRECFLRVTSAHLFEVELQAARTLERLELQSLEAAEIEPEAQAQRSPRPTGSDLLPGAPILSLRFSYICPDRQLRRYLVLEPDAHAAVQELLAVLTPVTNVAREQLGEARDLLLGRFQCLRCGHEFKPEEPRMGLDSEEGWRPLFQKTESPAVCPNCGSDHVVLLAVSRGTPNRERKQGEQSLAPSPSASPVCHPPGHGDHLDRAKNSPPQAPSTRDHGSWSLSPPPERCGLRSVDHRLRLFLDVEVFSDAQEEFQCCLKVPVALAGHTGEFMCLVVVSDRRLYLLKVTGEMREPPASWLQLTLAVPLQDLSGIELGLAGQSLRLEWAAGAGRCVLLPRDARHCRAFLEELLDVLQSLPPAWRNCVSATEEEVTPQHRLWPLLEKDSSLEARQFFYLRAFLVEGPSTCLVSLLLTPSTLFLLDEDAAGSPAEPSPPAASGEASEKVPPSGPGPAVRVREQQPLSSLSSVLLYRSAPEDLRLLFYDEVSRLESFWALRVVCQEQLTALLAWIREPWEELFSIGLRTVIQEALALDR
UniProt Q15022: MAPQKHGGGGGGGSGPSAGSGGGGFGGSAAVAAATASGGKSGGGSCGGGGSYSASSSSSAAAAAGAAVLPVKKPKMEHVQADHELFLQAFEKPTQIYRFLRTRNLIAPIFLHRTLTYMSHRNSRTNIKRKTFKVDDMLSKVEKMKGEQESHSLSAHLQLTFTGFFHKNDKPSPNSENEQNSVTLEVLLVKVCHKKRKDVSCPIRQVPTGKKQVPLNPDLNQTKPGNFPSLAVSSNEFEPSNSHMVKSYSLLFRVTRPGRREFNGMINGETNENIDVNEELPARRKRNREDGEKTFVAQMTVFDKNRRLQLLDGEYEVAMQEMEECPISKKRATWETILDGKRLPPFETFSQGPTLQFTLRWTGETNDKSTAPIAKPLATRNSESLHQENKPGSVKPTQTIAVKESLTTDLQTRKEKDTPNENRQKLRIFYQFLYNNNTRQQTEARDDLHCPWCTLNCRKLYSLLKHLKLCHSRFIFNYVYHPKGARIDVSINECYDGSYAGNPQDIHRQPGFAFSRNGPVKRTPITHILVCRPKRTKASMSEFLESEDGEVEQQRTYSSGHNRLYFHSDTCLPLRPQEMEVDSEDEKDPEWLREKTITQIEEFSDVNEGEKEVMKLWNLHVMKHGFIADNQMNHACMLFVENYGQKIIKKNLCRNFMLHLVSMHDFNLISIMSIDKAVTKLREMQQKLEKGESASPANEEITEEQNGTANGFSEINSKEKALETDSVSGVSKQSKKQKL
UniProt P55854, whole entry, looked up: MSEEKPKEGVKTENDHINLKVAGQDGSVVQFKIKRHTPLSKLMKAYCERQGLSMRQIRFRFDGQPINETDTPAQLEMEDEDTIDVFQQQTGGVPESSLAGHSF
UniProt Q15208: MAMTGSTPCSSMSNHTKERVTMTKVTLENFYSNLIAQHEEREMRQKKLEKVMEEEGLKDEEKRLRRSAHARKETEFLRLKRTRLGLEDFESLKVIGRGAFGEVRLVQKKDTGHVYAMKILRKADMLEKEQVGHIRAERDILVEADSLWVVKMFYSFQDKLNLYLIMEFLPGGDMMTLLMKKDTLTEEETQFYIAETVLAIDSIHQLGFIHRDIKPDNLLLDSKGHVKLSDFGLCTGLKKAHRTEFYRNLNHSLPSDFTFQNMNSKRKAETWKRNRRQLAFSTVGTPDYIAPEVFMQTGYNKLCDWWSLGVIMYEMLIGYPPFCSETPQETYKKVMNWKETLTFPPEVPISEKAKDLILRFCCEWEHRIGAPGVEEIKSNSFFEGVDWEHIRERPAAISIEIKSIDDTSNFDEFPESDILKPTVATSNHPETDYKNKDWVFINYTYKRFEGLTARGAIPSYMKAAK
UniProt Q86TM6, whole entry, looked up: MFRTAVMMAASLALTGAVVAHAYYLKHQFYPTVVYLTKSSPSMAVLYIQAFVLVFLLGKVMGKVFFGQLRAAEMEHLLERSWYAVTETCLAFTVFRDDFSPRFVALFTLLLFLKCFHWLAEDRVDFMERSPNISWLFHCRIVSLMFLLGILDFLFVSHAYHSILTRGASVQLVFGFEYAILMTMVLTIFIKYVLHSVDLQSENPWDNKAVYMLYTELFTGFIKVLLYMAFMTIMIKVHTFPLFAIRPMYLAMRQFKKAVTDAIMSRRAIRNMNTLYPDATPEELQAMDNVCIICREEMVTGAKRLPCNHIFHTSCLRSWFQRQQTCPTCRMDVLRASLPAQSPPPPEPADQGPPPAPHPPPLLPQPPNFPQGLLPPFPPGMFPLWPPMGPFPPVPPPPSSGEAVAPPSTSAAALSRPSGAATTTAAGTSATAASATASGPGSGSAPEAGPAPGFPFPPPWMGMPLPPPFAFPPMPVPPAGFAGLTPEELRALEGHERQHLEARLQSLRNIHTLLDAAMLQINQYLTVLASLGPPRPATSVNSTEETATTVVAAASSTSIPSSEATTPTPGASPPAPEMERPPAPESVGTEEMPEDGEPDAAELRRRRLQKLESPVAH
UniProt O00506, whole entry, looked up: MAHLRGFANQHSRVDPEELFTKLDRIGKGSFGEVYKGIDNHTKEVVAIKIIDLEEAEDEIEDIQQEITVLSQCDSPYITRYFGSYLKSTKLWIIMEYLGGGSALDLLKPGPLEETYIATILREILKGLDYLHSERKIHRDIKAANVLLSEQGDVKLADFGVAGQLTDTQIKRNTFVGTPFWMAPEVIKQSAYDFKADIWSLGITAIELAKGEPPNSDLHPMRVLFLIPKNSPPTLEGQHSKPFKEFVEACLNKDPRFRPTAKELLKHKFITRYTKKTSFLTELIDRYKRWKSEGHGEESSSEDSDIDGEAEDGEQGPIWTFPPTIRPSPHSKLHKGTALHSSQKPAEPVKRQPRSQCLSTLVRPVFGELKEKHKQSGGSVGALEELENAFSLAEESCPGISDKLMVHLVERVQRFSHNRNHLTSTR
UniProt P46977: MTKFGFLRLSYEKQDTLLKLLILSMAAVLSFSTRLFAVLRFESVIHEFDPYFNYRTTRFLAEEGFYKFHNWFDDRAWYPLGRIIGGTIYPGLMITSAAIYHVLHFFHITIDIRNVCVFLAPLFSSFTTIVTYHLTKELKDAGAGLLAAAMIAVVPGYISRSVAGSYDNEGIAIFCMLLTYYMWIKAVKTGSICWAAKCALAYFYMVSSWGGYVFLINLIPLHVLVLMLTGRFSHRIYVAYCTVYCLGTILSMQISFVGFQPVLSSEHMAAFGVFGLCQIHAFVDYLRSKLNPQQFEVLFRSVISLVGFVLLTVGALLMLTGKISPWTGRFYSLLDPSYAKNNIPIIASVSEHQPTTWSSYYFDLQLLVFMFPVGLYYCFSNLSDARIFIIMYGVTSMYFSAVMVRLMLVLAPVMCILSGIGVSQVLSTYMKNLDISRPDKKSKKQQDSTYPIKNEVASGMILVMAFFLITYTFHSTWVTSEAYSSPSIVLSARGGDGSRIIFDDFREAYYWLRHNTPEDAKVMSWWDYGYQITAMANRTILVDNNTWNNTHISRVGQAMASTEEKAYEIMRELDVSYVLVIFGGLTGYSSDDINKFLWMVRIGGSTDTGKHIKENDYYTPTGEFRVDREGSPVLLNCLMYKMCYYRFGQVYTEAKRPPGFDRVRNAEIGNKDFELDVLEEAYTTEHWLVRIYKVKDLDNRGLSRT
UniProt Q9NRL3: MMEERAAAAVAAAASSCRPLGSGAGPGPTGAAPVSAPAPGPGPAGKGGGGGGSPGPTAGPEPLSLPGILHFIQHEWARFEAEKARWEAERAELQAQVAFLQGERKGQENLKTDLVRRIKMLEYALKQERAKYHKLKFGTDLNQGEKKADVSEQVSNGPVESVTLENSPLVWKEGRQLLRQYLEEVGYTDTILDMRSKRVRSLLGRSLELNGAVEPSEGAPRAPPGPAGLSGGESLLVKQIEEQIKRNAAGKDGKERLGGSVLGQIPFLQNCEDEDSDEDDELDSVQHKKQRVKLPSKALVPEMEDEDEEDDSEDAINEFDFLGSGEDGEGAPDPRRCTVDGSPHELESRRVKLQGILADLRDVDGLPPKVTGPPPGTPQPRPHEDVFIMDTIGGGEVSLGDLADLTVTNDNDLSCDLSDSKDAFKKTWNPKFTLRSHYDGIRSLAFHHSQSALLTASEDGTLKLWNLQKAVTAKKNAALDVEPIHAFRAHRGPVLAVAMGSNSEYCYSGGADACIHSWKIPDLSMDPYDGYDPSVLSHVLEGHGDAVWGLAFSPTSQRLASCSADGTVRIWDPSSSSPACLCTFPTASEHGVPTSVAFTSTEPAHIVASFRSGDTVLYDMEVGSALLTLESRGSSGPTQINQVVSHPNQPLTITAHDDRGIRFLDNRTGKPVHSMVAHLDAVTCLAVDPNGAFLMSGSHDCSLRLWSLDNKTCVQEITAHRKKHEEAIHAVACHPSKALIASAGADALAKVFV
UniProt P51687: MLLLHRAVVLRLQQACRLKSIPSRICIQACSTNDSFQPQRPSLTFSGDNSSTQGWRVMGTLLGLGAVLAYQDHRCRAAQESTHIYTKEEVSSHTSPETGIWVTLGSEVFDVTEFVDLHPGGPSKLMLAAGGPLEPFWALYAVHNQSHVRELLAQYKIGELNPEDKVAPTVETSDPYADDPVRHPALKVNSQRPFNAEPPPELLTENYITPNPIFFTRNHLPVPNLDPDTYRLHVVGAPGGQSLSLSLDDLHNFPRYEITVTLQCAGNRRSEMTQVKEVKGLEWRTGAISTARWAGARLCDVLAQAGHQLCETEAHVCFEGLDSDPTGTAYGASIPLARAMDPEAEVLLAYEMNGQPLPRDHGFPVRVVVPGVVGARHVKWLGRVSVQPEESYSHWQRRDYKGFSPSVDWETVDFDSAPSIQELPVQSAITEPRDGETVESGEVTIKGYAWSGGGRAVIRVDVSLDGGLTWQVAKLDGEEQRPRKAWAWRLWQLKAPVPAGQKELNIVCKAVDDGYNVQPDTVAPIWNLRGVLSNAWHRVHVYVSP
UniProt P56962: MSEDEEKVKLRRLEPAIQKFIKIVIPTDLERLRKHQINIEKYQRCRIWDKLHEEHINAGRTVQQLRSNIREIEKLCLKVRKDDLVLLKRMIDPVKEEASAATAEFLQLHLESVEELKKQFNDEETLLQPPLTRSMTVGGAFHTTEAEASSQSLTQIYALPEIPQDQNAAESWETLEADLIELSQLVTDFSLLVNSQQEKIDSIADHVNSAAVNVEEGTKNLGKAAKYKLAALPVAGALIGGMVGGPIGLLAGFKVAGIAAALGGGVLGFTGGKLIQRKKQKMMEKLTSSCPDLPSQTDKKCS

compound: C[C@H](Nc1ncnc2nc[nH]c12)c1cc2cccc(Cl)c2c(=O)n1-c1ccccc1 [duvelisib]; experiment: log2 fold change, soluble protein after heating vs DMSO (PISA); higher = thermal stabilisation; K562 lysate, 10 uM; active = over 0.2 and 3.5 SD of the protein, either way, in both replicates (recomputed)
How it was run: (§1)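 Following dounce homogenisation of K562 pellets in PBS pH 7.4 with 1 mM MgCl2, crude extract at 1 mg/mL protein was incubated for 30 min with 10 μM compound. Aliquots were then heated for 3 min over 48°C-58°C and pooled, NP-40 was added to 0.5% at 4°C, and soluble protein was recovered as the supernatant at 21,000xg for 90 min. Channel-sum-equalised TMTpro 16plex LC-MS/MS quantified this protein. Each value, from duplicates, is a log-two fold change in thermal stability relative to solvent controls.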

log2 fold change, inactive:
SUCLA2 (UniProt Q9P2R7) -0.023
TAB1 (UniProt Q15750) -0.026
STX5 (UniProt Q13190) 0.06
SYNGR2 (UniProt O43760) -0.002
STMN2 isoform 2 (UniProt Q93045) -0.008
TADA1 (UniProt Q96BN2) 0.164
STUB1 (UniProt Q9UNE7) -0.01
TAF10 (UniProt Q12962) -0.013
SUMF2 (UniProt Q8NBJ7) 0.073
STOM (UniProt P27105) 0.037
SURF1 (UniProt Q15526) -0.001
SYNCRIP (UniProt O60506) 0.013
STRN3 (UniProt Q13033) 0.008
STX16 isoform 2 (UniProt O14662) 0.003
STK11IP (UniProt Q8N1F8) -0.052
SUCLG1 (UniProt P53597) 0.014
STK39 (UniProt Q9UEW8) 0.087
STRAP isoform 2 (UniProt Q9Y3F4) 0.014
SUZ12 (UniProt Q15022) -0.016
SUMO3 isoform 2 (UniProt P55854) 0.056
TACC3 (UniProt Q9Y6A5) 0.021
SYNE2 isoform 2 (UniProt Q8WXH0) 0.073
SVIP (UniProt Q8NHG7) -0.013
STK38 (UniProt Q15208) 0.017
SYVN1 (UniProt Q86TM6) 0.022
STK25 (UniProt O00506) -0.055
STK26 (UniProt Q9P289) 0.005
STT3A (UniProt P46977) 0.015
STRADA (UniProt Q7RTN6) 0.012
STXBP1 (UniProt P61764) 0.006
STRIP2 (UniProt Q9ULQ0) 0.066
SURF4 (UniProt O15260) 0.029
SUPT16H (UniProt Q9Y5B9) 0.022
STRN4 isoform 3 (UniProt Q9NRL3) -0.014
SYTL4 (UniProt Q96C24) -0.042
STX8 (UniProt Q9UNK0) 0.048
SUOX (UniProt P51687) -0.003
STX7 (UniProt O15400) -0.001
STX17 (UniProt P56962) 0.007

compound: Cc1cc(Nc2cc(CN3CCOCC3)c3nc(C)c(Cc4ccc(Cl)cc4F)n3n2)n[nH]1 [gandotinib]; experiment: as above
How it was run: as §1

log2 fold change, inactive:
SUCLA2 (UniProt Q9P2R7) 0.068
TAB1 (UniProt Q15750) -0.015
STX5 (UniProt Q13190) -0.068
SYNGR2 (UniProt O43760) 0.037
STMN2 isoform 2 (UniProt Q93045) -0.034
TADA1 (UniProt Q96BN2) -0.006
STUB1 (UniProt Q9UNE7) -0.073
TAF10 (UniProt Q12962) 0.021
SUMF2 (UniProt Q8NBJ7) 0.045
STOM (UniProt P27105) 0.03
SURF1 (UniProt Q15526) 0.094
SYNCRIP (UniProt O60506) -0.033
STRN3 (UniProt Q13033) -0.085
STX16 isoform 2 (UniProt O14662) 0.002
STK11IP (UniProt Q8N1F8) -0.019
SUCLG1 (UniProt P53597) -0.066
STK39 (UniProt Q9UEW8) -0.044
STRAP isoform 2 (UniProt Q9Y3F4) -0.022
SUZ12 (UniProt Q15022) 0.027
SUMO3 isoform 2 (UniProt P55854) 0.005
TACC3 (UniProt Q9Y6A5) 0.034
SYNE2 isoform 2 (UniProt Q8WXH0) 0.296
SVIP (UniProt Q8NHG7) 0.01
STK38 (UniProt Q15208) 0.159
SYVN1 (UniProt Q86TM6) -0.016
STK25 (UniProt O00506) 0.18
STK26 (UniProt Q9P289) 0.061
STT3A (UniProt P46977) -0.008
STRADA (UniProt Q7RTN6) 0.003
STXBP1 (UniProt P61764) -0.046
STRIP2 (UniProt Q9ULQ0) -0.059
SURF4 (UniProt O15260) 0.04
SUPT16H (UniProt Q9Y5B9) -0.061
STRN4 isoform 3 (UniProt Q9NRL3) 0.037
SYTL4 (UniProt Q96C24) -0.068
STX8 (UniProt Q9UNK0) -0.043
SUOX (UniProt P51687) 0
STX7 (UniProt O15400) 0.044
STX17 (UniProt P56962) -0.066
